Data from paper PMC5063997, “Engineered Tissue Inhibitor of Metalloproteinases-3 Variants Resistant to Endocytosis Have Prolonged Chondroprotective Activity*” (The Journal of Biological Chemistry, 2016).

Protein sequences, listed by entry. Tags and fused reporters are not part of them. Lines headed by an entry give the natural chain unless they say otherwise; changes in a name come on top.
UniProt Q9UNA0: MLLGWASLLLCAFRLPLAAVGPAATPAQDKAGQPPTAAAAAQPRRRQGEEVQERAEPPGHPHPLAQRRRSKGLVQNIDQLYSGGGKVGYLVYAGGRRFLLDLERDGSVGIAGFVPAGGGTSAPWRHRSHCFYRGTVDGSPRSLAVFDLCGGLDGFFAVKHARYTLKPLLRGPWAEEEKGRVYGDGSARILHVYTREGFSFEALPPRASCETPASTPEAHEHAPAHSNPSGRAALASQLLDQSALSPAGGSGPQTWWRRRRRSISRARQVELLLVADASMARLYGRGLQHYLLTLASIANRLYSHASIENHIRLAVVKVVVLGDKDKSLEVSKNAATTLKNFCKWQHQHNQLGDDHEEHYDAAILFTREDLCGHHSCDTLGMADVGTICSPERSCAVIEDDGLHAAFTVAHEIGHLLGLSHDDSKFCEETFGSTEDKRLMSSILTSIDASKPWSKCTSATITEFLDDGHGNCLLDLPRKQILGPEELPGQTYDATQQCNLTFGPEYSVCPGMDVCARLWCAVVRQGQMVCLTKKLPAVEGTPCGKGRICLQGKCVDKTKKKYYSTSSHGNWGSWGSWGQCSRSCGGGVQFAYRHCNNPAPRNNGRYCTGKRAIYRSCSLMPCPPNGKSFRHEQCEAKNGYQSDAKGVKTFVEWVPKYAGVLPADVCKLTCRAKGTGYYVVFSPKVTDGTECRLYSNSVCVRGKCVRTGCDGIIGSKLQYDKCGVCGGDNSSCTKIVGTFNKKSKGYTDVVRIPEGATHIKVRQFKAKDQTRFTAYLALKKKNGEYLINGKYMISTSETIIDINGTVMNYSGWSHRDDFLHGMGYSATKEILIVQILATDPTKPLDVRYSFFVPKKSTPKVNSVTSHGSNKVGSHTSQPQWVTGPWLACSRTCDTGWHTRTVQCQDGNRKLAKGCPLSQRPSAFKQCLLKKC

Target: ADAMTS-5 lacking the C-terminal thrombospondin domain (UniProt Q9UNA0)
Assay: enzyme inhibition under equilibrium conditions (Ki(app), tight binding equation); apparent; ADAMTS-5 (0.5 nM) preincubated with TIMP-3 (0.5-10 nM) with heparin (100 nM) 1 h at 37 °C, residual activity 18 h at 37 °C; 50 mM Tris-HCl pH 7.5, 150 mM NaCl, 10 mM CaCl2, 0.05% Brij 35, 0.02% NaN3; both purified

B1: wild-type TIMP-3 (tissue inhibitor of metalloproteinases-3), C-terminally FLAG-tagged (natural protein, UniProt P35625 24-211, looked up)
chain: CTCSPSHPQDAFCNSDIVIRAKVVGKKLVKEGPFGTLVYTIKQMKMYRGFTKMPHVQYIHTEASESLCGLKLEVNKYQYLLTGRVYDGKMYTGLCNFVERWDQLTLSQRKGLNYRYHLGCNCKIKSCYYLPCFVTSKNECLWTDMLSNFGYPGYQSKHYACIRQKGGYCSWYRGWAPPDKSIINATDP
notes: TIMP-3, secreted into the conditioned medium; source: for the screen also transiently transfected, conditioned medium dialyzed against TBS; not shown: FLAG, C-terminal, kept
With B1 the binding was “binds”.

B2: TIMP-3 K26A/K45A, C-terminally FLAG-tagged (natural protein, UniProt P35625 24-211, looked up)
chain: B1 chain with K26A, K45A
notes: as for B1
For B2, the binding was “binds”.

Where a chain is given by its changes, count along the chain named. Names and notes keep the numbering of the source. These are yes or no findings as the source states them, for the method shown. Binding calls can cover weak binding; strength is not graded here. Tags and fused reporters may be left off the sequences shown.
